Data reported in publication doi:10.1101/2025.11.01.685922.
Like-named read-outs stand apart in the source and are kept apart here. No constants are given. Whether binding was seen depends on the method and setting. In cells and extracts the contact can be indirect. A yes stands for co-enrichment or nearness to the bait. Other partners may have been found. Tags and fused reporters may be left off the sequences shown.

Chains of the proteins cited; added tags and fusions are not shown. Residues count along the entry.
UniProt Q9DBC7: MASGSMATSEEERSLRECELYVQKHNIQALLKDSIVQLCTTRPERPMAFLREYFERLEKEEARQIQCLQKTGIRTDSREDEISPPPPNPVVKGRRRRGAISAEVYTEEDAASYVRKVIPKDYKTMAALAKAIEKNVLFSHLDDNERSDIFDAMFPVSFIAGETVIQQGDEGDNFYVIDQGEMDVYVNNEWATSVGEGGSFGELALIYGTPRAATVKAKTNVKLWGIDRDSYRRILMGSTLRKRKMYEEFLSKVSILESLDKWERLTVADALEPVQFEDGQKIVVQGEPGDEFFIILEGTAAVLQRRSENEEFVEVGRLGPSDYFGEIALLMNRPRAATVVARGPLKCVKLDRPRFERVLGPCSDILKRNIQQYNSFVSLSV
UniProt P70336: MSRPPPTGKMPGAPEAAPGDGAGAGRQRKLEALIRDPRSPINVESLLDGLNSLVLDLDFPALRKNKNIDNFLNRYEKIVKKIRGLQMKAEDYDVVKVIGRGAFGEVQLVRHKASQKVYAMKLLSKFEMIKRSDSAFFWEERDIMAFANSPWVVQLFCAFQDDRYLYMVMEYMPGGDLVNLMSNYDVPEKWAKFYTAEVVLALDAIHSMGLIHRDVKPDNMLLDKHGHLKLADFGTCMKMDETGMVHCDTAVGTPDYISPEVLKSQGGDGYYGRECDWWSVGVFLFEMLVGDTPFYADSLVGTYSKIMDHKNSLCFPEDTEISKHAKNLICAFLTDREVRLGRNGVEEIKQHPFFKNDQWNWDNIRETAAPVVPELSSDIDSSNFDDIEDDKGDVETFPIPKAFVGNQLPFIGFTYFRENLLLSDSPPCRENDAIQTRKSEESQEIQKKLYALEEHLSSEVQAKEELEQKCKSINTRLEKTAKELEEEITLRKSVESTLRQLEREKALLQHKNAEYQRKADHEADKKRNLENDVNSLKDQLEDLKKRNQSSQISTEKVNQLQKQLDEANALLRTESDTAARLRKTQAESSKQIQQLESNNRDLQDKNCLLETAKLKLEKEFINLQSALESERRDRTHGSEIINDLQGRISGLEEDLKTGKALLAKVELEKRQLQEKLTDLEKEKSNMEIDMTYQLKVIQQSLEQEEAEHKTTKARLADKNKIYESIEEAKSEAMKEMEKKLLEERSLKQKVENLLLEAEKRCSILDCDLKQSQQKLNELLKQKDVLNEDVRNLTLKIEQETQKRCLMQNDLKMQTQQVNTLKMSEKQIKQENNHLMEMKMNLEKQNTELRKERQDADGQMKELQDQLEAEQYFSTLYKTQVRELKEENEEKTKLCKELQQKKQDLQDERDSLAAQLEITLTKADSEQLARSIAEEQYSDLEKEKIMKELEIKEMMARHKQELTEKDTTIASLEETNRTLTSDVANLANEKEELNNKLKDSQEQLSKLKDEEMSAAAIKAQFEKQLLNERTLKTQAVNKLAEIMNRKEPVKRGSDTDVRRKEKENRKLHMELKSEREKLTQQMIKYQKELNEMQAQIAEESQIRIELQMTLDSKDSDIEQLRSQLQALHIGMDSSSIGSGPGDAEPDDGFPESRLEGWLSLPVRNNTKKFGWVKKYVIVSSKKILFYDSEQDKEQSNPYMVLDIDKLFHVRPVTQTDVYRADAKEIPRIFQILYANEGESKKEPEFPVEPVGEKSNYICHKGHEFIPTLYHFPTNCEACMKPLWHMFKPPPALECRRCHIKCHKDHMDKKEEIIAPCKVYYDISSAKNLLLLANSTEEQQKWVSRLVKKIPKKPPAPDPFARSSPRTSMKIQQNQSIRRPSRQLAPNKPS
UniProt P70302, residues 23-685: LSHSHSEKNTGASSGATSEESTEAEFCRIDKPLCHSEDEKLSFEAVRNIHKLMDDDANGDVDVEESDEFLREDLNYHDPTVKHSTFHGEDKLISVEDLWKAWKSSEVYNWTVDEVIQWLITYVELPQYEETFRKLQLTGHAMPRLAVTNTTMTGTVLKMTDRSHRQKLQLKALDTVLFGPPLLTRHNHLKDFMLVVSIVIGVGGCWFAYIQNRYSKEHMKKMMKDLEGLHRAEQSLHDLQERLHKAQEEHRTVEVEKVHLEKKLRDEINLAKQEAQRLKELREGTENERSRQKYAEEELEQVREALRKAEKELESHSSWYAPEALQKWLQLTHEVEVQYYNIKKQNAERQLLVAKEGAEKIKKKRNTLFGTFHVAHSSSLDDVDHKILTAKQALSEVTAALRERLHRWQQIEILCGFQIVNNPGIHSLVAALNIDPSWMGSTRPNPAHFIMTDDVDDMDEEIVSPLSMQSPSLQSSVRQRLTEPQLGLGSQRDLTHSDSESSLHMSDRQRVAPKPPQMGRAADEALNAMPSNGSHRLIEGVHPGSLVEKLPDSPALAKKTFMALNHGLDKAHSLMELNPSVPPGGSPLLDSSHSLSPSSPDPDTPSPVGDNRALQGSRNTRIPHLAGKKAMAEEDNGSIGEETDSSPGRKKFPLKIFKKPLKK

Columns and labels:
Test in all cases: proximity labelling
[1] = target: T1, FAM134B fused to TurboID-V5 (FAM134B-TID-V5 and TID-V5-FAM134B) (mouse) (UniProt Q8VE91)
T1 sequence: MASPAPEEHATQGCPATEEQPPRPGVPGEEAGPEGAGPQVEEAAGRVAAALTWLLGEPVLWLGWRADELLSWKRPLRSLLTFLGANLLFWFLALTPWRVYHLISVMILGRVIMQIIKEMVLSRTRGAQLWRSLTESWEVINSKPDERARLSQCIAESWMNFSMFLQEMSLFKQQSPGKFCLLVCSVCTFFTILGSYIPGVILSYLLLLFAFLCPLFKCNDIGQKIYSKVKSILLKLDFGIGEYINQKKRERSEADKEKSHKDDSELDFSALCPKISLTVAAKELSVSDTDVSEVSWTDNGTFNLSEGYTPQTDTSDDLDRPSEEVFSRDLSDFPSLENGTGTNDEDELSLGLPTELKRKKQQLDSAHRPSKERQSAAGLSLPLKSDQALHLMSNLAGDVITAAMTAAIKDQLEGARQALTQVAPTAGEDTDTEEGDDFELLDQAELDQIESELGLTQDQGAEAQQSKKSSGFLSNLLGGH

[2] = target: T2, FAM134C fused to TurboID-V5 (FAM134C-TID-V5 and TID-V5-FAM134C) (UniProt Q9CQV4)
T2 sequence: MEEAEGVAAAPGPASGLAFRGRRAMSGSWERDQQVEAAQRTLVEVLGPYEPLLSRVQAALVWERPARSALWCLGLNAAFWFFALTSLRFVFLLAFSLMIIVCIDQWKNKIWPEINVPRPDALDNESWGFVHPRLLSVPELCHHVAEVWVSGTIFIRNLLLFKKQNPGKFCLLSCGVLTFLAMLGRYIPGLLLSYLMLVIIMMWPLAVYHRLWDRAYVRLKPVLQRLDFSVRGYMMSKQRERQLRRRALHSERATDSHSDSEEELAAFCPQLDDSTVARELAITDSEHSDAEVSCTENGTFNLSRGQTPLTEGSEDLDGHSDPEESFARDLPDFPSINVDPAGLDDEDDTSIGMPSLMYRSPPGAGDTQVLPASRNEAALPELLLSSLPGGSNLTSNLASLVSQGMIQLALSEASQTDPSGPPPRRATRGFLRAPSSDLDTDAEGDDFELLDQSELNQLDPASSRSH

[3] = target: T1, FAM134B fused to TurboID-V5 (FAM134B-TID-V5 and TID-V5-FAM134B) (mouse); remark: listed apart in the source
[4] = target: T2, FAM134C fused to TurboID-V5 (FAM134C-TID-V5 and TID-V5-FAM134C); remark: listed apart in the source

binding [1]	binding [2]	binding [3]	binding [4]	Substance
binds	binds	binds	binds	PRKAR1A, endogenous in PDAC cells (from UniProt Q9DBC7 1-381)
		binds		ROCK2, endogenous in PDAC cells (from UniProt P70336 1-1388) (enzyme)
		binds		STIM1, endogenous in PDAC cells (from UniProt P70302 23-685)
